Laboratory results from paper doi:10.1101/2023.08.20.554038.
No constants are given. Whether binding was seen depends on the method and setting. Binding seen in cells or lysates may run through a third protein. Some entries that bind do so weakly or less than the wild type.

Sequences of proteins named here, by UniProt entry; tags and fusion partners are left off.
UniProt P12367: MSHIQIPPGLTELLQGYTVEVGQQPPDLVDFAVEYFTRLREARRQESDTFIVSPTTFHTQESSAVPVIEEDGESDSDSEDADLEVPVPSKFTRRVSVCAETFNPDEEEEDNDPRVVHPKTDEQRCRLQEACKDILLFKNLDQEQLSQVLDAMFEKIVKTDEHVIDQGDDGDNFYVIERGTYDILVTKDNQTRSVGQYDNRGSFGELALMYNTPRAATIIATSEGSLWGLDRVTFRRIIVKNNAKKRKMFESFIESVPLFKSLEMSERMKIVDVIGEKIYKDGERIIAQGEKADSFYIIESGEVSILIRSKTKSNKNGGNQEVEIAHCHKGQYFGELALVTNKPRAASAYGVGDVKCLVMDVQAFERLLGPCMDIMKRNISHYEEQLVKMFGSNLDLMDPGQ
UniProt P24588: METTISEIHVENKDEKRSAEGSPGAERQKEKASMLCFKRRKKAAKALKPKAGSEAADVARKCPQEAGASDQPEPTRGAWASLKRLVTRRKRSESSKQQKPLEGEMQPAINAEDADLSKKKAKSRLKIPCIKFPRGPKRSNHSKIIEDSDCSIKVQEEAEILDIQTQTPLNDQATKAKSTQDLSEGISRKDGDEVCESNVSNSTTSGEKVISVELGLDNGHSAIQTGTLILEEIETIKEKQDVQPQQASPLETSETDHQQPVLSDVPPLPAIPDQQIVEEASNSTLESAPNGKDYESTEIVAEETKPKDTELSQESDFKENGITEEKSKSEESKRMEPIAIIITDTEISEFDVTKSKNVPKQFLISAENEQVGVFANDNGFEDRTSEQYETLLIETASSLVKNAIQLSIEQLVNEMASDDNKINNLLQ
UniProt Q9Y490: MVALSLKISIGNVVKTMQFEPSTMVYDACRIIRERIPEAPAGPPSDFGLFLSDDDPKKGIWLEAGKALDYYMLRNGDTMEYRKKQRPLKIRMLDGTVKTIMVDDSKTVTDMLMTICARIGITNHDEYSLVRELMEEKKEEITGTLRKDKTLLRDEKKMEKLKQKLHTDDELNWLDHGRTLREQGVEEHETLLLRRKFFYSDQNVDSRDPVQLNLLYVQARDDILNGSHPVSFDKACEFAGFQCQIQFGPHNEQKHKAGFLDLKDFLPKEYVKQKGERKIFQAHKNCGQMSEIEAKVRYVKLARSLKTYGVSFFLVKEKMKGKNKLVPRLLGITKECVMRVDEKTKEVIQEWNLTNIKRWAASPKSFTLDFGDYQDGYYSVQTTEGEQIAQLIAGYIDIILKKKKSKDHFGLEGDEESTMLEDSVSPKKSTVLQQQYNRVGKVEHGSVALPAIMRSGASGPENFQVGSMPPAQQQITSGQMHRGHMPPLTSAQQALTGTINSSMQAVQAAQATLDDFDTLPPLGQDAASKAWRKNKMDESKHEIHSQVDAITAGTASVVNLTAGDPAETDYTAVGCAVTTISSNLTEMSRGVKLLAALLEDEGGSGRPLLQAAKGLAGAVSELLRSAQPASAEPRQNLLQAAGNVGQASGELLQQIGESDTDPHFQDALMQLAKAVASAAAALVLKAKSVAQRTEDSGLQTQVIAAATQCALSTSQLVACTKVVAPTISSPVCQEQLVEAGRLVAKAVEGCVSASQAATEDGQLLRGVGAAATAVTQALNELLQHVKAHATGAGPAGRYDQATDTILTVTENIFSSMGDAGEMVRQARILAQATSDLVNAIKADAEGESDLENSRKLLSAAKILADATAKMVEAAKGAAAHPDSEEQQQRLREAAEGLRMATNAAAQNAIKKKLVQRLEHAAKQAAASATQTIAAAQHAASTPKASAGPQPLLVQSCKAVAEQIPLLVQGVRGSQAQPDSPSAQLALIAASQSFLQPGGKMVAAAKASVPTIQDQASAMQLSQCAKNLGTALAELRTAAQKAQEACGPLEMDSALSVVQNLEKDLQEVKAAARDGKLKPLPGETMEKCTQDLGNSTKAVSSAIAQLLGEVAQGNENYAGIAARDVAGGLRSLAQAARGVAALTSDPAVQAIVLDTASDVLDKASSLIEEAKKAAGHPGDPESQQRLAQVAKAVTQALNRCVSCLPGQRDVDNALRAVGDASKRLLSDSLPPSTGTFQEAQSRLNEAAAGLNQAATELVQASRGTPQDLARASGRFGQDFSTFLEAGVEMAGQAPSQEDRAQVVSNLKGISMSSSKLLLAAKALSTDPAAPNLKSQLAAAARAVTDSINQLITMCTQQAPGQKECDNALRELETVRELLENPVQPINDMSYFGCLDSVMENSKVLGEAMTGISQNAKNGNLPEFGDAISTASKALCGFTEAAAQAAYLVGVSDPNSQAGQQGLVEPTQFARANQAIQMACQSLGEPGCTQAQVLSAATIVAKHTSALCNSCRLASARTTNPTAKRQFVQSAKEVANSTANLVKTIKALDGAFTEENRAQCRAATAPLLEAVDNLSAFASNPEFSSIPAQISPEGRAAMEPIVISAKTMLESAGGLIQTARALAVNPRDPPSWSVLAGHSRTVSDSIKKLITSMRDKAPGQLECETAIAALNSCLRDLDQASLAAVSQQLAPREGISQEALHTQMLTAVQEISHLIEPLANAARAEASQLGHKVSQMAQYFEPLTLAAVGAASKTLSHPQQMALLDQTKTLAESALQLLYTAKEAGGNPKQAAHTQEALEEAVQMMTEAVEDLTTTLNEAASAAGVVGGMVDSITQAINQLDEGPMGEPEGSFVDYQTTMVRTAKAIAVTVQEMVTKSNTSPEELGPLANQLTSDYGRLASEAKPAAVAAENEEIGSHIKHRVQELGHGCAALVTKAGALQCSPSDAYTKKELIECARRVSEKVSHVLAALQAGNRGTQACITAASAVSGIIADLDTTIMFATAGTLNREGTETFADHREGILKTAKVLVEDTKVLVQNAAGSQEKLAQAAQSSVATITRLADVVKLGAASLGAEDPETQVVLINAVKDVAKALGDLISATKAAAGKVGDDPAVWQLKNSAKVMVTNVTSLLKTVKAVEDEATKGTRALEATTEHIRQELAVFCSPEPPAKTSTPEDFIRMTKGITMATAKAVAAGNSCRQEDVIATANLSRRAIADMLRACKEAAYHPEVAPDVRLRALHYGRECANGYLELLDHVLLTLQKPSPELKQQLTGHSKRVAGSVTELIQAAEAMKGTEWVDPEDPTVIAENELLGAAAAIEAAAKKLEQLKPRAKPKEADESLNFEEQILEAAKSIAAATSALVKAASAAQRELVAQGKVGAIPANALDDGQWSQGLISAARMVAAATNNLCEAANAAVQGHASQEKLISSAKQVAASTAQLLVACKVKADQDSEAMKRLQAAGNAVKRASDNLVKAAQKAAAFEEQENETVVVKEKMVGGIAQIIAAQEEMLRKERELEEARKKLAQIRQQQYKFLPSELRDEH

Target: V5 epitope-tagged murine PKA RIIα fused to miniTurbo biotin ligase (V5-RIIα-mTb), wild type (mouse) (UniProt P12367)
Test: co-IP

Substance	binding
AKAP79 (from UniProt P24588 1-427)	binds
talin1 (from UniProt Q9Y490 1-2541)	binds
